Article PMC7819943, “Rice protein-binding microarrays: a tool to detect cis-acting elements near promoter regions in rice”
Some of the results follow.

Molecular target: T1, OsSMF1 (Oryza sativa, UniProt Q6ZLB0 1-436)
T1 sequence: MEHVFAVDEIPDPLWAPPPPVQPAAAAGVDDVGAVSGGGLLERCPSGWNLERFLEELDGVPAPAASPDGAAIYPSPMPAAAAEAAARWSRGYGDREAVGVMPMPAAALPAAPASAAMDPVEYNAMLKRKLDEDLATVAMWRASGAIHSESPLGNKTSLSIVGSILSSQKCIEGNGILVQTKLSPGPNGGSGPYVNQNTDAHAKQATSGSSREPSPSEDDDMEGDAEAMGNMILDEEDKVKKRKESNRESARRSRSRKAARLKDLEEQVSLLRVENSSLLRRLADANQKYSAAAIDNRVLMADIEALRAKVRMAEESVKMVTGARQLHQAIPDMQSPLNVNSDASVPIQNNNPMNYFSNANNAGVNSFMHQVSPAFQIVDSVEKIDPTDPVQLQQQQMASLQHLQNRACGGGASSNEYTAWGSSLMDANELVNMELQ
Experiment: protein-binding microarray (RPBM); PBS, 2% BSA, 51.3 ng/ul salmon testes DNA, 50 uM zinc acetate, 200 nM TF, 25 C, 1 h; high values mean tight binding
Conditions: protein: recombinant; tags: N-terminal polyhistidine and DsRed monomer fusion (pET32a); chain copies: 2; label: CyDye5-dUTP incorporated in the synthesized complementary strand; 3' TTTTT single-stranded linker to array surface; dsDNA, one strand shown
Summary of the method: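 Polyhistidine-tagged DsRed fusions of transcription factors, joined at the N-terminus, were expressed in E. coli BL21-CodonPlus and isolated on Ni–NTA. They were incubated at 200 nM for 1 h at 25 °C on a custom Agilent array, double-stranded and BSA-blocked, in PBS with 2% BSA, salmon testes DNA and 50 µM zinc acetate. The binding signal is per-feature fluorescence intensity (arbitrary units) read on an Axon 4000B scanner after washing.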

| Sequence | binding signal |
| --- | --- |
| GGGTTGTTGTAGAATCTTGTGGATCCACTTGGCAGGGTCTCGGAGTCACCTAGTGCAG | 4540 fluorescence intensity (a.u.) |
| GAATTGCCACGTAGGCGCCACGTCATATGAAGACCGAGTCCGGAGTCACCTAGTGCAG | 45500 fluorescence intensity (a.u.) |
| CACGACCCACCATCATGTCATCCGTGGCTTAATGACACCCCGGAGTCACCTAGTGCAG | 7910 fluorescence intensity (a.u.) |
| AACTCAGATGGGCCGGCCCGTCAACCATCCGCGTGGCCCACGGAGTCACCTAGTGCAG | 5040 fluorescence intensity (a.u.) |
| CAGTATTCCTGCTACCATATCAAATCTGACTAACCTGAATCGGAGTCACCTAGTGCAG | 26200 fluorescence intensity (a.u.) |
| AACAAGCCACTTGATCAAATTAGGCGCTTGTCACCAAGCACGGAGTCACCTAGTGCAG | 3410 fluorescence intensity (a.u.) |
| CTTCACCTGGATCATCACCGCCGTCTCCACCTCCGGGAACCGGAGTCACCTAGTGCAG | 3170 fluorescence intensity (a.u.) |
| TTGATTTCTGTTATGTATGACGTGGCAGATGACTTAGTGTCGGAGTCACCTAGTGCAG | 17000 fluorescence intensity (a.u.) |
| TAGTACCAACGCTTCACCGGTGCGTTGGACACCACTTCTCCGGAGTCACCTAGTGCAG | 3160 fluorescence intensity (a.u.) |
| TGCTGCTGCTGCCGCTGCTGCTGCTGGTGTGGTGGTAGGTCGGAGTCACCTAGTGCAG | 3500 fluorescence intensity (a.u.) |
| CTCTATTGCAGGGTCTAACTTGTCATCTGAATTCAACATGCGGAGTCACCTAGTGCAG | 4380 fluorescence intensity (a.u.) |
| GCGGCAACCCTGCGAGCCTGCAGTGACGCCGCCGCCGCCGCGGAGTCACCTAGTGCAG | 3700 fluorescence intensity (a.u.) |
| AATATTCGGGGCTTTATGCGACAAGCGGAAACACCAACTTCGGAGTCACCTAGTGCAG | 5580 fluorescence intensity (a.u.) |
| AACCTGCCACGTAACTGCCACATAGGACAAAACCGCCTCCCGGAGTCACCTAGTGCAG | 22700 fluorescence intensity (a.u.) |
| AAACATTTGCTAATGACGGAGGTTTACCGACGGATCCTGTCGGAGTCACCTAGTGCAG | 3410 fluorescence intensity (a.u.) |
| CACTACTCCCATCACGGCACACTGATTCACAGCACACAGTCGGAGTCACCTAGTGCAG | 3820 fluorescence intensity (a.u.) |
| CCCTGTGCCATGATACGTGTCTATCGATGCTCTGTGTATACGGAGTCACCTAGTGCAG | 7130 fluorescence intensity (a.u.) |
| GCAAGAAGACTTTGTCAGAAATCAGAACATGCCTAGGACCCGGAGTCACCTAGTGCAG | 26700 fluorescence intensity (a.u.) |
| CAACATAGGCCGGTGATGACGAGGGAGACAGCACCATCGGCGGAGTCACCTAGTGCAG | 3370 fluorescence intensity (a.u.) |
| TTGATCTGCGAATTTCGCGGGGCCATCATCCAGTTGGCACCGGAGTCACCTAGTGCAG | 3380 fluorescence intensity (a.u.) |
| GAGTATGTTACATGCGTCATCCTTTAAAGGGTGTCGAAGGCGGAGTCACCTAGTGCAG | 3870 fluorescence intensity (a.u.) |

| Sequence | binding signal |
| --- | --- |
| GGACTCTGGGTAGAGGCAGAGCAGTGCACCACGTGTACGCCGGAGTCACCTAGTGCAG | 4280 fluorescence intensity (a.u.) |
| CCTAAAGTGGAGAGGCCAGGTCATTCCTCTCGAGCGACGGCGGAGTCACCTAGTGCAG | 3880 fluorescence intensity (a.u.) |
| CGGCCACCAACCGCGGGCCCACCCGTCAGTGACGGTGGGTCGGAGTCACCTAGTGCAG | 3630 fluorescence intensity (a.u.) |
| CCCTCAGTGCTCTCATTGACTCATCCAACGGCTGAAATGCCGGAGTCACCTAGTGCAG | 4210 fluorescence intensity (a.u.) |
| GAAAGATATCCAGTGAGGAGATCCAAGCACGAGAGCTAATCGGAGTCACCTAGTGCAG | 3280 fluorescence intensity (a.u.) |
| TCTGGGTTAATATGTTGCTAGATGCTAATATTCTGGGTTGCGGAGTCACCTAGTGCAG | 3320 fluorescence intensity (a.u.) |
| TGTAGAGAACGGCACGTGGCGACATGACCGTCGATCATGTCGGAGTCACCTAGTGCAG | 7000 fluorescence intensity (a.u.) |
| TTGAGACTGACATCAGAAAACCGCGGCGAGCTGGCGACTGCGGAGTCACCTAGTGCAG | 25800 fluorescence intensity (a.u.) |
| GTGCGTCGCTGCTGCGGACGCGGTCGCTGACACTGTGCTTCGGAGTCACCTAGTGCAG | 3700 fluorescence intensity (a.u.) |
| AGCATGCTTGCATTTATGGTGTACCATGGTCAGCAAGGAACGGAGTCACCTAGTGCAG | 3910 fluorescence intensity (a.u.) |
| CTGAAGAATTTGGATCCAACGTCCCAGATGCGCGCGTGTCCGGAGTCACCTAGTGCAG | 4070 fluorescence intensity (a.u.) |
| AAGAAAATGAAGAGAGATGTGGGGCCCACATCACTCTCTCCGGAGTCACCTAGTGCAG | 4320 fluorescence intensity (a.u.) |
| CACCGGGCGCCTCTTCCCTGTGGTAGCAGTCGCCGCCGCCCGGAGTCACCTAGTGCAG | 6170 fluorescence intensity (a.u.) |
| GTGTGGTTTTGCTGATGTGGCGCTGACGTGGCGATATTGACGGAGTCACCTAGTGCAG | 48500 fluorescence intensity (a.u.) |
| TCACTCTTTAAACACGTAAGTTAAAATTCAACTTTTACAGCGGAGTCACCTAGTGCAG | 3870 fluorescence intensity (a.u.) |
| CGCCGGCGCTAGGCGAATCGCAATGATGACGGCAAGGAGGCGGAGTCACCTAGTGCAG | 3300 fluorescence intensity (a.u.) |
| GGGAGTAACTTAAGTAATTTATCAAGAAGGTAGTAGCTACCGGAGTCACCTAGTGCAG | 6490 fluorescence intensity (a.u.) |
| CATGGGGCACGTGCCACGCAAGGACTTCGCCCACACCATGCGGAGTCACCTAGTGCAG | 9510 fluorescence intensity (a.u.) |
| CTCGATCCAGATCGAACGGCCGCCCCGTCACCGCGACCGCCGGAGTCACCTAGTGCAG | 4930 fluorescence intensity (a.u.) |
| TCATCTGGTACAAAATATATAGGACATCAATCATGGGGAACGGAGTCACCTAGTGCAG | 26200 fluorescence intensity (a.u.) |
| AGGTATGGGCCGTCCCATCAGAAGGTCATTCGGACGGCAGCGGAGTCACCTAGTGCAG | 3360 fluorescence intensity (a.u.) |

Exported as tab-separated lines: part of the list above.
Sequence	binding signal
GGACTCTGGGTAGAGGCAGAGCAGTGCACCACGTGTACGCCGGAGTCACCTAGTGCAG	4280 fluorescence intensity (a.u.)
GAAAGATATCCAGTGAGGAGATCCAAGCACGAGAGCTAATCGGAGTCACCTAGTGCAG	3280 fluorescence intensity (a.u.)
TGTAGAGAACGGCACGTGGCGACATGACCGTCGATCATGTCGGAGTCACCTAGTGCAG	7000 fluorescence intensity (a.u.)
TTGAGACTGACATCAGAAAACCGCGGCGAGCTGGCGACTGCGGAGTCACCTAGTGCAG	25800 fluorescence intensity (a.u.)
GTGCGTCGCTGCTGCGGACGCGGTCGCTGACACTGTGCTTCGGAGTCACCTAGTGCAG	3700 fluorescence intensity (a.u.)
AGCATGCTTGCATTTATGGTGTACCATGGTCAGCAAGGAACGGAGTCACCTAGTGCAG	3910 fluorescence intensity (a.u.)
GTGTGGTTTTGCTGATGTGGCGCTGACGTGGCGATATTGACGGAGTCACCTAGTGCAG	48500 fluorescence intensity (a.u.)
CGCCGGCGCTAGGCGAATCGCAATGATGACGGCAAGGAGGCGGAGTCACCTAGTGCAG	3300 fluorescence intensity (a.u.)
GGGAGTAACTTAAGTAATTTATCAAGAAGGTAGTAGCTACCGGAGTCACCTAGTGCAG	6490 fluorescence intensity (a.u.)
CTCGATCCAGATCGAACGGCCGCCCCGTCACCGCGACCGCCGGAGTCACCTAGTGCAG	4930 fluorescence intensity (a.u.)
